Measurements reported in PubChem BioAssay AID330 (DTP/NCI, 2004).
The list is a part of this screen's results and no random one: it gathers tests that were run many times, whatever their T/C, doses with no T/C, and many T/C values between a quarter and a half above the control. Further doses and runs are listed elsewhere. T/C gives the treated animals as a percentage of the vehicle group. Some doses have a count of surviving animals in place of a T/C: the source files T/C as zero there, which appears to mark a toxic dose or a test without result, not a measured value. Some doses without a T/C left all or most animals alive at the check, yet need not have been tolerated: the source hardly ever lists a survival T/C far under the control, and the zero likely stands for such cases as well. Survivors were counted at the toxicity check, usually on the fifth day, unless a day is given; later deaths do not show. Schedules are NCI's codes, taken here to give the interval after Q, in days (D) or hours (H), and the number of doses after X. Some entries hold several experiments; their values stand side by side, smallest first. For survival time, the PubChem record calls one and a half times the control and up active, and a quarter to a half above the control has no call in these data; cut-offs in other NCI protocols can differ.

Tested on: P388 leukemia ip, CD2F1 mice, survival T/C
Test: NCI In Vivo Anticancer Drug Screen. Data for tumor model P388 Leukemia (intraperitoneal) in CD2F1 (CDF1) mice
Conditions: T/C endpoint: median survival time, higher T/C = longer survival
[1] = dose: 25.0 mg/kg/injection, schedule: Q01DX005 (ip), vehicle: Klucel (hydroxypropylcellulose) (HPC)
[2] = dose: 50.0 mg/kg/injection, schedule: Q01DX005 (ip), vehicle: Klucel (hydroxypropylcellulose) (HPC)
[3] = dose: 100.0 mg/kg/injection, schedule: Q01DX005 (ip), vehicle: Klucel (hydroxypropylcellulose) (HPC)
[4] = dose: 200.0 mg/kg/injection, schedule: Q01DX005 (ip), vehicle: Klucel (hydroxypropylcellulose) (HPC)
[5] = dose: 200.0 mg/kg/injection, schedule: Q01DX005 (ip), vehicle: saline with Tween-80

[N-]=[N+]=C1N=Nc2ccccc21
survivor count (dose: 6.25 mg/kg/injection, schedule: Q01DX005 (ip), vehicle: Klucel (hydroxypropylcellulose) (HPC)): 4 of 6
survivor count (dose: 12.5 mg/kg/injection, schedule: Q01DX005 (ip), vehicle: Klucel (hydroxypropylcellulose) (HPC)): 1 of 6
survivor count [1]: 0 of 6
survivor count [2]: 0 of 6
survivor count [3]: 0 of 6
survivor count [4]: 0 of 6

O=C(c1ccccc1)c1c(CO[N+](=O)[O-])n([O-])c2ccccc2[n+]1=O
T/C (dose: 15.0 mg/kg/injection, schedule: Q01DX005 (ip), vehicle: saline with Tween-80): 130 % of control
T/C (dose: 30.0 mg/kg/injection, schedule: Q01DX005 (ip), vehicle: saline with Tween-80): 138 % of control
survivor count (dose: 60.0 mg/kg/injection, schedule: Q01DX005 (ip), vehicle: saline with Tween-80): 5 of 6
survivor count (dose: 120.0 mg/kg/injection, schedule: Q01DX005 (ip), vehicle: saline with Tween-80): 6 of 6
survivor count (dose: 240.0 mg/kg/injection, schedule: Q01DX005 (ip), vehicle: saline with Tween-80): 0 of 6

COc1ccccc1N1CCN(CCc2c[nH]c3cc4c(cc23)OCO4)CC1
survivor count (dose: 150.0 mg/kg/injection, schedule: Q01DX009 (ip), vehicle: Klucel (hydroxypropylcellulose) (HPC)): 2 of 6

Cc1ccc(Nc2nnc(Nc3ccc(C)cn3)c3ccccc23)nc1
survivor count [5]: 6 of 6

CCN(CC)c1cc(C(=O)O)cc(N(CC)CC)n1
T/C [3]: 132 % of control
survivor count [3]: 1 of 6 and 2 of 6
survivor count (dose: 100.0 mg/kg/injection, schedule: Q01DX005 (ip), vehicle: sodium bicarbonate): 3 of 6
survivor count [4]: 0 of 6
survivor count (dose: 200.0 mg/kg/injection, schedule: Q01DX005 (ip), vehicle: sodium bicarbonate): 0 of 6

C(=N\SC(c1ccccc1)(c1ccccc1)c1ccccc1)/c1ccccc1
survivor count [5]: 6 of 6

CCOC(=O)N1C(=O)C=CC1=O
survivor count (dose: 300.0 mg/kg/injection, schedule: Q01DX009 (ip), vehicle: saline with Tween-80): 0 of 6

Cc1ccc(N=C(N)NN=C(c2ccc(Cl)cc2)c2ccc(Cl)cc2)cc1
survivor count (dose: 400.0 mg/kg/injection, schedule: Q04DX002 (ip), vehicle: saline with Tween-80): 0 of 6 and 1 of 6

C[N+]1(C)C2CCC1CC(=O)C2
survivor count (dose: 50.0 mg/kg/injection, schedule: Q01DX009 (ip), vehicle: suspension in saline): 3 of 6

NC1=CC(=O)c2nc(-c3ccccc3N)ccc2C1=O
survivor count (dose: 400.0 mg/kg/injection, schedule: Q04DX003 (ip), vehicle: Klucel (hydroxypropylcellulose) (HPC)): 2 of 6

Clc1cc(Cl)c2c(c1)[nH]c1nc3ccccc3nc12
survivor count (dose: 25.0 mg/kg/injection, schedule: Q01DX005 (ip), vehicle: saline with Tween-80): 6 of 6

O=C1Nc2ccc(Cl)cc2C1=O
T/C (dose: 100.0 mg/kg/injection, schedule: Q01DX009 (ip), vehicle: Klucel (hydroxypropylcellulose) (HPC)): 126 % of control

O=CC(=C\c1ccco1)/C(C=O)=C\c1ccco1
survivor count [5]: 0 of 6

Cn1c(=O)c2c(ncn2Cc2ccc(O)c([N+](=O)[O-])c2)n(C)c1=O
survivor count [2]: 6 of 6

CCN1/C(=C/C=C/C=C/c2oc3ccccc3[n+]2CC)Oc2ccccc21
survivor count (dose: 6.25 mg/kg/injection, schedule: Q01DX009 (ip), vehicle: suspension in saline): 0 of 6
survivor count (dose: 12.5 mg/kg/injection, schedule: Q01DX009 (ip), vehicle: suspension in saline): 0 of 6
survivor count (dose: 25.0 mg/kg/injection, schedule: Q01DX009 (ip), vehicle: suspension in saline): 0 of 6
survivor count (dose: 50.0 mg/kg/injection, schedule: Q01DX009 (ip), vehicle: saline): 0 of 6
survivor count (dose: 100.0 mg/kg/injection, schedule: Q01DX009 (ip), vehicle: saline): 0 of 6
survivor count (dose: 200.0 mg/kg/injection, schedule: Q01DX009 (ip), vehicle: saline): 0 of 6

Cc1ccc(S(=O)(=O)N(C)C2c3ccccc3Oc3ccccc32)cc1
survivor count (dose: 25.0 mg/kg/injection, schedule: Q01DX009 (ip), vehicle: Klucel (hydroxypropylcellulose) (HPC)): 6 of 6

C=C1CCN(c2ccc(C)cc2)C1=O
survivor count (dose: 32.0 mg/kg/injection, schedule: Q01DX009 (ip), vehicle: saline + alcohol): 6 of 6

CC(=O)Nc1ccc(S(=O)(=O)n2c(=O)oc3cc(Br)ccc32)cc1
survivor count [1]: 6 of 6
survivor count [2]: 5 of 6
survivor count [3]: 6 of 6
survivor count [4]: 6 of 6
